In assay [1] the target is HA-tag SRF (pCGN-SRF). Kind of assay: co-IP of epitope-tagged proteins from co-transfected CV1 cells, Western blot. A general note: Immunoblotting shows a protein as a band on a membrane.
The target in assay [2] is FLAG-tag E12 (pcDNA3.1-FLAG-E12). Described as above.
Assay [3] addresses endogenous cytoplasmic α-actinin (mouse). Kind of assay: co-IP from cytoplasmic extracts of αMHC-CRP2 transgenic mouse hearts, immunoblot.

These are yes or no findings as the source states them, for the method shown. Binding seen in cells or lysates may run through a third protein. For part of these data: Binding calls can cover weak binding; strength is not graded here. Where a sequence is shown, tags or fusion partners need not be part of it.

B1: V5-tag full length CRP2 (1-193) (protein, rat, UniProt Q62908 1-193, looked up, not shown: small tags and cut ends)
chain: MPVWGGGNKCGACGRTVYHAEEVQCDGRTFHRCCFLCMVCRKNLDSTTVAIHDEEIYCKSCYGKKYGPKGYGYGQGAGTLNMDRGERLGIKPESAQPHRPTTNPNTSKFAQKYGGAEKCSRCGDSVYAAEKIIGAGKPWHKNCFRCAKCGKSLESTTLTEKEGEIYCKGCYAKNFGPKGFGYGQGAGALVHAQ
Consider B1, for which the binding result was “binds” in assay [1] and “no binding” in assay [2].

B2: FLAG-tagged rat CRP2 (αMHC-CRP2 transgene) (other, UniProt Q62908 1-193, looked up, not shown: small tags and cut ends)
chain: MPVWGGGNKCGACGRTVYHAEEVQCDGRTFHRCCFLCMVCRKNLDSTTVAIHDEEIYCKSCYGKKYGPKGYGYGQGAGTLNMDRGERLGIKPESAQPHRPTTNPNTSKFAQKYGGAEKCSRCGDSVYAAEKIIGAGKPWHKNCFRCAKCGKSLESTTLTEKEGEIYCKGCYAKNFGPKGFGYGQGAGALVHAQ
notes: Expressed in cardiomyocytes of transgenic mice and assayed in nuclear and cytoplasmic heart extracts; also called FLAG-CRP2; FLAG-tagged CRP2
Consider B2, for which, in assay [3], the binding result is “binds”.

(Values after patent US20050037961A1 (BAYLOR COLLEGE OF MEDICINE, published 2005).)
